The target in this assay is T1, MKK3 (Arabidopsis), O80396.
T1 chain: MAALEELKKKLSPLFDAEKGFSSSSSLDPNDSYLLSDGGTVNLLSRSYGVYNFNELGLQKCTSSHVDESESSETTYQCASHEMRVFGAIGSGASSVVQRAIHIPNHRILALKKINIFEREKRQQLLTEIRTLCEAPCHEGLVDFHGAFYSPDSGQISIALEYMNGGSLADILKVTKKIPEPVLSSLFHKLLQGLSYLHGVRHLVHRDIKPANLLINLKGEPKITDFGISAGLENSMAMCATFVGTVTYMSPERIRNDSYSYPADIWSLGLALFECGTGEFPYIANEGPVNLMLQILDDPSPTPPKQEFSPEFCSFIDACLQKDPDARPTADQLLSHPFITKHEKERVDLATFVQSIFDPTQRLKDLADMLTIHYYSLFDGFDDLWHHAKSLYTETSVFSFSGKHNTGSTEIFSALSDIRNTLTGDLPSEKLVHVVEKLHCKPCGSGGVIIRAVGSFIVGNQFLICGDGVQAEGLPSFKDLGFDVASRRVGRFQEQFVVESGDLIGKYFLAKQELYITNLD
Nature of the assay: two-hybrid. To be noted: remark: other sources report otherwise.

The record followed here is article doi:10.1101/855098.

No constants are given. Whether binding was seen depends on the method and setting. Some binding calls cover weakened binding; strength is not graded here.

B1: MAP3K18, Q9ZVP5 1-339 (enzyme)
chain: MNWTRGKTLGRGSTATVSAATCHESGETLAVKSAEFHRSEFLQREAKILSSLNSPYVIGYRGCEITREPFHNNGEATTYSLLMEYAPYGTLTDVATKNGGFIDEARVVKYTRQILLGLEYIHNSKGIAHCDIKGSNVLVGENGEAKIADFGCAKWVEPEITEPVRGTPAFMAPEAARGERQGKESDIWAVGCTVIEMVTGSQPWIGADFTDPVSVLYRVGYLGELPELPCSLTEQAKDFLGKCLKKEATERWTASQLLNHPFLVNKEPELVTGLVTNSPTSVTDQMFWRSVEEEVSEDRSSWWECHEDERIGVLSWIGHVVVESTWDLDGEDWITVRRN
Regarding B1, the binding entry was “binds”.
